In PubChem BioAssay AID540303 (National Center for Advancing Translational Sciences (NCATS), 2011):
About 1,000 (0.3%) of roughly 330,000 compounds were called active. Inconclusive results, whose numbers are uncertain, are shown with a selection of clear calls. The call rests on the fitted dose curve; in most records, active means well fitted inhibition curve with a large enough effect; inconclusive means small, poorly fitted or top-dose-only effect; inactive means no such curve, though single readings can be large or run the other way; tested in mouse RAW 264.7 cells. Potencies of inconclusive entries are doubtful fits and often do not repeat.
On the % scale 0 is the no-effect control and ±100 the full control effect; potency means the concentration at half of the fitted maximal effect.

Experiment: qHTS for Inhibitors of Cell Surface uPA Generation; further: nearly all actives have a fitted effect of over 55% in size
Conditions: cell surface uPA generation assay; series mostly up to 38.3 µM; activity change, negative = inhibition: at the top concentration
Outline: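 Intracellular ATP by ATPlite luminescence serves as read-out: inhibited cell-surface uPA generation prevents LF translocation, preserving ATP. Murine RAW 264.7 macrophages were treated 24 h at 37 C with five-fold serial dilutions, up to 38.3 uM final.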
In the case of `C=CC[n+]1c(-c2ccc(OCC)cc2)csc1NNC(=O)Nc1ccccc1`, the Potency is reported as inconclusive: 12.6 µM [inhibitor, single point]. With `O=C(CSc1nnc(NC(=O)c2cccc(F)c2)s1)NCC1CCCO1` (configuration not stated) the Potency was inconclusive: 10 µM [inhibitor, partial curve, poor fit]. In the case of `CCN1C(=O)[C@@H]2Cc3c([nH]c4ccccc34)C(c3cc(OC)c(OC)c(OC)c3)N2C1=S` (some centres not stated), the Potency is reported as inconclusive: 12.6 µM [inhibitor, single point]. In the case of `NC(=O)CC(NC(=O)Cc1ccc(Br)cc1)c1ccc(NCC2CC2)c([N+](=O)[O-])c1` (configuration not stated), the Potency is reported as inconclusive: 5.01 µM [inhibitor, partial curve, poor fit]. For `CC1CCN(S(=O)(=O)c2ccc(C(=O)Nc3nnc(C4=COCCO4)o3)cc2)CC1`, the Potency was inconclusive: 10 µM [inhibitor, partial curve, poor fit]. For `Cc1ccc(S(=O)(=O)N2CCN(Cc3cc(C(C)(C)C)ccc3O)CC2)cc1`, the Potency was inconclusive: 25.1 µM [inhibitor, single point]. With `CC(=O)c1cccc(NC(=O)CCc2nnc3ccc(NCc4ccco4)nn23)c1` the Potency was inconclusive: 3.55 µM [inhibitor, partial curve, poor fit]. With `CCOc1ccc(NC(=O)CN(C)C(=O)c2cc([N+](=O)[O-])ccc2N2CCCCC2)cc1OCC` the Potency was inconclusive: 11.2 µM [inhibitor, partial curve, poor fit]. With `Nc1nc(CCl)nc(Nc2ccc3ccccc3c2)n1` the Potency was inconclusive: 7.08 µM [inhibitor, partial curve, poor fit]. In the case of `N#CC1(NC(=O)COC(=O)c2cc([N+](=O)[O-])ccc2N2CCOCC2)CCCCC1`, the “activity change, negative = inhibition” value is reported as inactive: -0.855%. With `CC(NC(=O)C(C)N1CCN(Cc2ccccc2)CC1)c1ccccc1` (configuration not stated) the “activity change, negative = inhibition” value was inactive: 2.13%. In the case of `Cc1ccoc1C(=O)Nc1cccc2ccccc12`, the Potency is reported as inconclusive: 31.6 µM [inhibitor, partial curve, poor fit]. In the case of `CCCCn1c(/N=C/c2c[nH]c3ccccc23)nc2ccccc21`, the “activity change, negative = inhibition” value is reported as inactive: -11.8%. For `CC(C)(C)c1ccc(NC(=O)NC2CCCc3ccccc32)cc1` (configuration not stated), the Potency was inconclusive: 3.98 µM [inhibitor, partial curve, poor fit]. In the case of `NS(=O)(=O)c1cccc(NS(=O)(=O)c2ccc3ccccc3c2)c1`, the “activity change, negative = inhibition” value is reported as inactive: 4.35%. For `COc1ccc(CNC(=O)CN(C(=O)CCC(=O)Nc2nccs2)c2cccc(C)c2)cc1`, the “activity change, negative = inhibition” value was inactive: 2.59%. For `O=C(NCC(=O)N1CCN(S(=O)(=O)c2ccccc2)CC1)c1ccc(Br)o1`, the “activity change, negative = inhibition” value was inactive: -11.1%. In the case of `COc1ccc(/C=C2/CCOC2=O)cc1`, the “activity change, negative = inhibition” value is reported as inactive: -2.7%. For `Cc1ccc(O)c(NC(=O)CSc2n[nH]c(-c3ccccc3)n2)c1`, the Potency was inconclusive: 4.47 µM [inhibitor, partial curve]. For `COc1cc(OC)cc(C(=O)NC2CCCN(Cc3ccc(Cl)cc3)C2)c1` (configuration not stated), the Potency was inconclusive: 28.2 µM [inhibitor, single point]. With `O=C1CC[C@@H](CN(Cc2ccccn2)Cc2nc(Cc3cccc(C(F)(F)F)c3)no2)N1` the Potency was inconclusive: 7.94 µM [inhibitor, single point]. In the case of `CC(NC(=O)c1cc(COc2ccc3ncccc3c2)on1)c1ccc(F)cc1` (configuration not stated), the Potency is reported as inconclusive: 0.794 µM [inhibitor, full curve, poor fit]. With `CC(C)(C)CC(C)(C)c1ccc(O)c(CN2CCN(CCC#N)CC2)c1` the “activity change, negative = inhibition” value was inactive: 5.99%. For `CCN(CC)CCC(C)OC(c1ccccc1)c1ccccc1` (configuration not stated), the Potency was inconclusive: 10 µM [inhibitor, partial curve, poor fit]. With `Cc1cccc(N2CCN(C(=O)C(Cc3ccccc3)n3cccc3)CC2)c1C` (configuration not stated) the Potency was inconclusive: 7.08 µM [inhibitor, partial curve, poor fit]. For `COc1cccc(/C=C/C(=O)Nc2ccc3nc4n(c(=O)c3c2)CCCC4)c1OC`, the Potency was inconclusive: 7.08 µM [inhibitor, partial curve, poor fit]. With `O=C(Cn1c(NCCCCl)nc2ccccc21)c1ccccc1` the Potency was inconclusive: 2.82 µM [inhibitor, partial curve, poor fit]. For `O=C(c1cn(Cc2ccccc2)nc1-c1ccccc1)N1CCN(c2ccccn2)CC1`, the Potency was active: 4.47 µM. For `Cc1cccc(OCCSCc2nc3ccccc3[nH]2)c1`, the “activity change, negative = inhibition” value was inactive: 12.5%. For `Cc1cccc(N(C)C(=O)CN2C(=O)COc3ccc(S(=O)(=O)N4CCCCCC4)cc32)c1`, the Potency was inconclusive: 8.91 µM [inhibitor, single point]. With `O=[N+]([O-])c1ccc(COc2ccc(CN3CCCCC3)cc2)cc1` the Potency was inconclusive: 11.2 µM [inhibitor, partial curve, poor fit]. In the case of `CN(N=Nc1nc[nH]c1C(=O)NN)C1CCCCC1`, the “activity change, negative = inhibition” value is reported as inactive: 4.29%. With `COc1ccc2c(-c3ccc(OCCN4CCCCC4)cc3)c(-c3ccccc3OC)sc2c1` the Potency was inconclusive: 12.6 µM [inhibitor, single point]. With `Fc1ccccc1/C=N/n1c(C2CCCCC2)n[nH]c1=S` the “activity change, negative = inhibition” value was inactive: 6.45%. With `N#C/C(=C/c1ccccc1OCc1ccc(F)cc1)c1ccc(C(=O)O)cc1` the Potency was inconclusive: 0.0141 µM [inhibitor, full curve, poor fit]. For `CCC1CSC(=Nc2ccc(C)cc2)N1C(=O)CN1C(=O)NC2(CCCC2)C1=O` (configuration not stated), the Potency was active: 8.91 µM. In the case of `CC(=O)NC(c1ccc(Cl)cc1)c1ccc2cccnc2c1O` (configuration not stated), the Potency is reported as inconclusive: 1.78 µM [inhibitor, full curve, poor fit]. For `Cc1nc(C(Cl)(Cl)Cl)nc2[nH]ccc(=O)c12`, the “activity change, negative = inhibition” value was inactive: -10%. In the case of `C=CCn1c(C)cc(C(=O)CSc2nnc(C3CC3)n2C2CC2)c1C`, the Potency is reported as inconclusive: 12.6 µM [inhibitor, single point]. In the case of `Cc1csc(NC(=O)CSc2nnc3c4ccccc4nc(C(C)(C)C)n23)n1`, the Potency is reported as inconclusive: 5.01 µM [inhibitor, full curve]. With `Cc1ccc2nc(NC(=O)CCCC(=O)O)sc2c1` the Potency was inconclusive: 5.01 µM [inhibitor, full curve]. For `COc1ccc(/C=C2\SC(=O)N(CCC(=O)N3CCN(C)CC3)C2=O)cc1`, the Potency was inconclusive: 0.0126 µM [inhibitor, full curve, poor fit].
